PubChem BioAssay AID652272, Drosophila RNAi Screening Center | 2013
Assay: 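Finding fly genes that regulate Hedgehog signal transduction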 (primary screen). System: Drosophila clone 8 (Cl8) cells. Reagents: long dsRNA against Drosophila genes. Measurement: 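Firefly light from a Hedgehog-responsive ptc promoter reporter and Renilla reference light, both read on a plate reader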. Direction: firefly Hh reporter signal: higher = more ptc reporter light; Renilla reference signal: higher = more Renilla control light. Call rule: 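Hit when the z-score averaged over two replicates is under -2 or over +3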. Calls: active = hit: reporter lowered or raised; inactive = not a hit.
The deposit covers about 21,000 reagents; this is a random part of those that have a named target and a result. Of all reagents, 503 (2.4%) got an active call. 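Raw plate light values, not normalised; calls rest on replicate z-scores that were not deposited; hits include reporter decreases as well as increases.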 Unmarked entries are inactive. Names joined by + are all predicted targets of the reagent. Reagent sequences are not shown. Not given: the amount of reagent, the time to read-out.

The opening 4 records as a preview:
target gene,amplicon,"firefly Hh reporter signal, replicate 1","firefly Hh reporter signal, replicate 2","firefly Hh reporter signal, replicate 3","Renilla reference signal, replicate 1","Renilla reference signal, replicate 2"
CG5946,DRSC10560,36795,35542,44422,4021,3697
RacGAP84C (Rac GTPase activating protein at 84C),DRSC12630,67620,74708,,2900,2103
CG8858,DRSC07290,84949,44985,,2321,3078
CG15731,DRSC19698,1.43e5,3.52e5,,5122,14165

The list itself, repeating the preview:
target gene,amplicon,"firefly Hh reporter signal, replicate 1","firefly Hh reporter signal, replicate 2","firefly Hh reporter signal, replicate 3","Renilla reference signal, replicate 1","Renilla reference signal, replicate 2"
CG5946,DRSC10560,36795,35542,44422,4021,3697
RacGAP84C (Rac GTPase activating protein at 84C),DRSC12630,67620,74708,,2900,2103
CG8858,DRSC07290,84949,44985,,2321,3078
CG15731,DRSC19698,1.43e5,3.52e5,,5122,14165
Blm + CG14721,DRSC14943,90263,1.04e5,,2929,3205
CG15544,DRSC15082,87274,1.60e5,,1972,6524
CG10953,DRSC06021,1.05e5,56355,,1339,4800
Hpd (4-hydroxyphenylpyruvate dioxygenase),DRSC11670,1.16e5,95825,,4363,4145
Su(var)3-7 (Suppressor of variegation 3-7),DRSC16872,64948,59259,,2109,1650
CG9344,DRSC04541,1.04e5,58898,,2870,5749
CG34229,DRSC06316,1.13e5,86885,,2774,5472
LysD + LysB + LysC (retired record),DRSC21249,77228,2.37e5,,2805,9011
Mctp (Multiple C2 domain and transmembrane region protein),DRSC06510,88714,58234,,2560,3977
CG11226,DRSC11639,84509,1.16e5,,3259,2816
LysE (Lysozyme E),DRSC08675,92636,47755,,3072,3492
CG8138,DRSC16386,80864,76029,,3090,2050
CG13560,DRSC04198,1.03e5,81066,,2640,7155
Sec71 (Secretory 71),DRSC01893,1.25e5,48230,,3435,4761
CG32085,DRSC10138,69322,68813,62517,5283,5207
CG32085,DRSC10139,71674,67451,78859,5673,5942
CG32085,DRSC10576,84535,27728,61780,3797,5708
CG7069,DRSC16188,1.16e5,93333,,5027,4085
CG13117,DRSC02215,68385,52937,,1701,4738
CR41501 (pseudo),DRSC07785,1.09e5,3.01e5,,3029,10881
CG14329,DRSC14808,69547,68928,,2528,1042
CG13229,DRSC06349,66914,57574,,1033,4929
Mms19,DRSC12188,1.32e5,1.02e5,,4504,3944
fidipidine,DRSC07618,77787,43273,,1827,3520
ry (rosy),DRSC17048,97689,1.03e5,,3974,4208
lva (lava lamp),DRSC18403,1.31e5,1.42e5,,2576,5017
Cyp310a1 (Cytochrome P450 310a1),DRSC03301,79127,68760,,3443,2896
CG14220,DRSC19577,79046,1.53e5,,2316,8565
Pu (Punch),DRSC04645,1.00e5,66949,,3777,2684
Taf12L (TBP-associated factor 30kD subunit alpha-2),DRSC00467,1.17e5,1.03e5,,2400,7665
Rrp5 (Ribosomal RNA Processing 5),DRSC15862,89613,76532,,4640,3705
CG12155,DRSC17826,1.07e5,68468,,2731,1505
Fcp1 (TFIIF-interacting CTD phosphatase),DRSC04121,99152,53456,,4436,2448
Ugt303B2 (UDP-glycosyltransferase family 303 member B2),DRSC14198,9.40e5,1.55e5,,50226,3277
CG43102,DRSC13261,54045,2.79e5,,10784,6560
CG43102,DRSC14797,8.40e5,1.93e5,,44144,5541
CG43102,DRSC16239,6.30e5,1.10e5,,28805,3372
dmpd (dampened),DRSC06092,64208,48522,,3099,2017
wit (wishful thinking),DRSC08741,1.28e5,1.21e5,,4346,4729
Sb (Stubble),DRSC16851,99383,95714,,3520,5850
Pabp2,DRSC07501,52682,30900,,1850,2992
ldd (lipid droplet defective),DRSC20558,82208,1.77e5,,2833,8509
Nha2 (Na[+]/H[+] hydrogen antiporter 2),DRSC14689,5.90e5,1.06e5,,29069,3408
Nha2 (Na[+]/H[+] hydrogen antiporter 2),DRSC15619,82361,40048,,3744,1907
Nha2 (Na[+]/H[+] hydrogen antiporter 2),DRSC15623,6.65e5,1.12e5,,38108,3552
CG5071,DRSC15710,7.99e5,1.70e5,,39712,4938
CG7884,DRSC20065,55946,1.68e5,,1509,7773
"DCTN6-p27 (Dynactin 6, p27 subunit)",DRSC02609,1.21e5,4.65e5,73568,2841,26864
CG5895,DRSC10554,1.37e5,,,1824,4085
Polr3K + Tcs1,DRSC05988,1.22e5,62553,,3499,5011
put (punt),DRSC17039,95988,69232,,3833,2615
Nep5 (Neprilysin 5),DRSC16004,84923,73653,,2267,2248
CG9386,DRSC16485,95840,97094,,3269,2699
